{"source": "PubChem BioAssay AID652243 | Drosophila RNAi Screening Center – 2013", "test": "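Knock-downs that decrease or increase androgen receptor reporter signal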 (primary screen)", "cell system": "Drosophila S2R+ cells", "knock-down reagent": "long dsRNA against Drosophila genes", "duration": "72 h (48 h, then 24 h hormone)", "challenge": "synthetic androgen R1881 at 10 nM for 24 h", "measured": "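Firefly light from an androgen-responsive reporter and Renilla control light per well, raw and unnormalised, for each of two replicates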", "direction": "firefly reporter light: higher = more light from androgen-responsive reporter; Renilla control light: higher = more constitutive control signal (cell number, transfection)", "hit rule": "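Hit when the log firefly-to-Renilla ratio dropped or increased by a fixed fold versus the mean of GFP or LacZ controls across duplicate plates; lowering cut given as 1.5 and as 3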", "meaning of the calls": "active = hit: reporter lowered or raised; inactive = no hit", "note": "The screen tested about 24,000 reagents; this is an unselected part of those that have a named target and a result. In the full data, 246 (1%) were called active. 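Plates not normalised; calls are printed but the firefly/Renilla ratio behind them is not deposited; fold cut for lowering reported inconsistently.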 Raw values are not corrected between plates. A plus sign joins genes that one reagent is predicted to hit. The record does not give: the amount of reagent."}
{"gene knocked down":"Ser12","amplicon":"DRSC00786","firefly reporter light, replicate 1":1.46e5,"firefly reporter light, replicate 2":82947,"Renilla control light, replicate 1":7.68e5,"Renilla control light, replicate 2":6.43e5,"activity call":"inactive"}
{"gene knocked down":"Hsp70Bb + Hsp70Ba + Hsp70Bc + 1 more","amplicon":"DRSC21247","firefly reporter light, replicate 1":88763,"firefly reporter light, replicate 2":71248,"Renilla control light, replicate 1":3.06e5,"Renilla control light, replicate 2":2.24e5,"activity call":"inactive"}
{"gene knocked down":"Hsp70Bb + Hsp70Ba + Hsp70Bc + 1 more","amplicon":"DRSC21248","firefly reporter light, replicate 1":97065,"firefly reporter light, replicate 2":1.05e5,"Renilla control light, replicate 1":2.70e5,"Renilla control light, replicate 2":1.92e5,"activity call":"inactive"}
{"gene knocked down":"Prp38","amplicon":"DRSC07060","firefly reporter light, replicate 1":5.82e5,"firefly reporter light, replicate 2":7.23e5,"Renilla control light, replicate 1":8.94e5,"Renilla control light, replicate 2":1.21e6,"activity call":"inactive"}
{"gene knocked down":"Prp38","amplicon":"DRSC28968","firefly reporter light, replicate 1":4.56e5,"firefly reporter light, replicate 2":4.85e5,"Renilla control light, replicate 1":1.49e6,"Renilla control light, replicate 2":1.16e6,"activity call":"inactive"}
{"gene knocked down":"Kmn1","amplicon":"DRSC19666","firefly reporter light, replicate 1":5.95e5,"firefly reporter light, replicate 2":4.32e5,"Renilla control light, replicate 1":4.61e6,"Renilla control light, replicate 2":2.79e6,"activity call":"inactive"}
{"gene knocked down":"Kmn1","amplicon":"DRSC27299","firefly reporter light, replicate 1":3.26e5,"firefly reporter light, replicate 2":2.67e5,"Renilla control light, replicate 1":5.11e5,"Renilla control light, replicate 2":4.97e5,"activity call":"inactive"}
{"gene knocked down":"dgrn","amplicon":"DRSC12154","firefly reporter light, replicate 1":21085,"firefly reporter light, replicate 2":37949,"Renilla control light, replicate 1":2.67e5,"Renilla control light, replicate 2":2.49e5,"activity call":"inactive"}

Limited to “firefly reporter light, replicate 2”, for 2 of the entries above:
Prp38 [DRSC07060]: 7.23e5
Prp38 [DRSC28968]: 4.85e5

The listing continues.
{"gene knocked down":"otu","amplicon":"DRSC18811","firefly reporter light, replicate 1":2.71e5,"firefly reporter light, replicate 2":2.69e5,"Renilla control light, replicate 1":3.30e6,"Renilla control light, replicate 2":3.08e6,"activity call":"inactive"}
{"gene knocked down":"otu","amplicon":"DRSC27953","firefly reporter light, replicate 1":9.85e5,"firefly reporter light, replicate 2":4.63e5,"Renilla control light, replicate 1":3.28e6,"Renilla control light, replicate 2":1.19e6,"activity call":"inactive"}
{"gene knocked down":"Sac1","amplicon":"DRSC08622","firefly reporter light, replicate 1":8.32e5,"firefly reporter light, replicate 2":1.06e6,"Renilla control light, replicate 1":1.15e6,"Renilla control light, replicate 2":1.24e6,"activity call":"inactive"}
{"gene knocked down":"Sac1","amplicon":"DRSC26886","firefly reporter light, replicate 1":3.45e5,"firefly reporter light, replicate 2":2.28e5,"Renilla control light, replicate 1":5.92e5,"Renilla control light, replicate 2":4.55e5,"activity call":"inactive"}
{"gene knocked down":"Sac1","amplicon":"DRSC37062","activity call":"inactive"}
{"gene knocked down":"Nna1","amplicon":"DRSC19404","firefly reporter light, replicate 1":59797,"firefly reporter light, replicate 2":71204,"Renilla control light, replicate 1":4.92e5,"Renilla control light, replicate 2":5.53e5,"activity call":"inactive"}
{"gene knocked down":"Nna1","amplicon":"DRSC26989","firefly reporter light, replicate 1":3.85e5,"firefly reporter light, replicate 2":3.25e5,"Renilla control light, replicate 1":6.97e5,"Renilla control light, replicate 2":5.99e5,"activity call":"inactive"}
{"gene knocked down":"Apc2","amplicon":"DRSC14115","firefly reporter light, replicate 1":37140,"firefly reporter light, replicate 2":60256,"Renilla control light, replicate 1":3.53e5,"Renilla control light, replicate 2":3.46e5,"activity call":"inactive"}
{"gene knocked down":"Ir11a","amplicon":"DRSC19699","firefly reporter light, replicate 1":2.25e5,"firefly reporter light, replicate 2":2.26e5,"Renilla control light, replicate 1":3.07e6,"Renilla control light, replicate 2":3.19e6,"activity call":"inactive"}
{"gene knocked down":"CG9541","amplicon":"DRSC03257","firefly reporter light, replicate 1":1.58e5,"firefly reporter light, replicate 2":1.77e5,"Renilla control light, replicate 1":1.96e6,"Renilla control light, replicate 2":1.64e6,"activity call":"inactive"}
{"gene knocked down":"CG9541","amplicon":"DRSC39269","activity call":"inactive"}
{"gene knocked down":"CG9541","amplicon":"DRSC39270","activity call":"inactive"}
{"gene knocked down":"Or49a","amplicon":"DRSC07493","firefly reporter light, replicate 1":2.74e5,"firefly reporter light, replicate 2":2.04e5,"Renilla control light, replicate 1":1.52e6,"Renilla control light, replicate 2":1.37e6,"activity call":"inactive"}
